PubChem BioAssay AID1259308 | NCATS | 2017

Test: 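Candidate targets for better recombinant protein yield in mammalian cells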 (primary screen)
Cell system: human HEK293 embryonic kidney cells stably expressing firefly luciferase (HEK-CMV-Luc2-Hygro)
Knock-down reagent: single siRNA against human genes, 0.8 pmol siRNA per well
Time to read-out: 72 h
Measured: 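Luciferase light (ONE-Glo) measured on one replicate plate set and viability (CellTiter-Glo) on the other, scaled to a negative control siRNA, with robust z-scores and luciferase per cell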
Reading the numbers: total luciferase, z-score and total luciferase, % of control: higher = more reporter protein produced; luciferase per cell, z-score: higher = more reporter output per viable cell; viable cells, % of control: higher = more viable cells
Call rule: 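Active when the median/MAD z-score for overall luciferase is greater than 3; a gene was taken forward for validation with new siRNAs if at least two of its three siRNAs passed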
Meaning of the calls: active = raised luciferase; inactive = no rise
This is a random part of about 59,000 deposited reagents. Of all reagents, about 1,510 (2.6%) are marked active. 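Calls use total luciferase alone and ignore viability, so some active siRNAs may act by altering cell number.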 Unmarked entries are inactive. The numbers tell different reagents against one gene apart. No sequences are given here.

The first 3 entries as a preview:
no.	Target gene	siRNA no.	total luciferase, z-score	total luciferase, % of control	luciferase per cell, z-score	viable cells, % of control
1	RAC1 (Rac family small GTPase 1)	1	-0.507	71.8	0.318	73.8
2	RAC1 (Rac family small GTPase 1)	2	0.0682	83.2	0.28	86.4
3	RAC1 (Rac family small GTPase 1)	3	0.668	95.2	0.558	91.8

Main list, from the first entry:
no.	Target gene	siRNA no.	total luciferase, z-score	total luciferase, % of control	luciferase per cell, z-score	viable cells, % of control
1	RAC1 (Rac family small GTPase 1)	1	-0.507	71.8	0.318	73.8
2	RAC1 (Rac family small GTPase 1)	2	0.0682	83.2	0.28	86.4
3	RAC1 (Rac family small GTPase 1)	3	0.668	95.2	0.558	91.8
4	PNPLA8 (patatin like domain 8, phospholipase A2)	1	-0.407	73.8	-0.875	104
5	PNPLA8 (patatin like domain 8, phospholipase A2)	2	-0.438	73.2	-0.495	93.2
6	PNPLA8 (patatin like domain 8, phospholipase A2)	3	0.00225	81.9	-0.513	105
7	TPMT (thiopurine S-methyltransferase)	1	-0.137	79.2	-0.589	103
8	TPMT (thiopurine S-methyltransferase)	2	2.65	135	2.44	79.1
9	TPMT (thiopurine S-methyltransferase)	3	0.855	98.9	1.11	82.5
10	ARSD (arylsulfatase D)	1	-0.324	75.4	-0.607	98.9
11	ARSD (arylsulfatase D)	2	1.1	104	0.635	98.1
12	ARSD (arylsulfatase D)	3	-1.83	45.6	-1.88	83.6
13	RAB28 (RAB28, member RAS oncogene family)	1	-0.0525	80.8	-0.0151	90.7
14	RAB28 (RAB28, member RAS oncogene family)	2	2.26	127	1.46	96.5
15	RAB28 (RAB28, member RAS oncogene family)	3	1.55	113	0.688	105
16	EFCAB12 (EF-hand calcium binding domain 12)	1	0.168	85.2	0.773	77.7
17	EFCAB12 (EF-hand calcium binding domain 12)	2	1.44	110	1.04	93.9
18	EFCAB12 (EF-hand calcium binding domain 12)	3	-2.32	35.7	-2.11	69.5
19	SLC31A1	1	0.175	85.4	0.118	92.5
20	SLC31A1	2	-1.85	45.2	-2.41	95.2
21	SLC31A1	3	1.48	111	0.57	107
22	COX5A (cytochrome c oxidase subunit 5A)	1	0.794	97.7	0.453	96.9
23	COX5A (cytochrome c oxidase subunit 5A)	2	4.02 (active)	162	2.61	91
24	COX5A (cytochrome c oxidase subunit 5A)	3	0.244	86.7	0.863	77.2
